Source: paper PMC7260189
These are yes or no findings as the source states them, for the method shown. In cells and extracts the contact can be indirect. Some entries that bind do so weakly or less than the wild type. For some of these results: Sequences can lack the tags named with a protein.

Amino acid sequences for entries named in this document (tags omitted). A change or cut given only in a name is not applied to a line headed by its entry. Chains listed by the source or under a name are the forms on record and can include a tag or linker.
UniProt O95817: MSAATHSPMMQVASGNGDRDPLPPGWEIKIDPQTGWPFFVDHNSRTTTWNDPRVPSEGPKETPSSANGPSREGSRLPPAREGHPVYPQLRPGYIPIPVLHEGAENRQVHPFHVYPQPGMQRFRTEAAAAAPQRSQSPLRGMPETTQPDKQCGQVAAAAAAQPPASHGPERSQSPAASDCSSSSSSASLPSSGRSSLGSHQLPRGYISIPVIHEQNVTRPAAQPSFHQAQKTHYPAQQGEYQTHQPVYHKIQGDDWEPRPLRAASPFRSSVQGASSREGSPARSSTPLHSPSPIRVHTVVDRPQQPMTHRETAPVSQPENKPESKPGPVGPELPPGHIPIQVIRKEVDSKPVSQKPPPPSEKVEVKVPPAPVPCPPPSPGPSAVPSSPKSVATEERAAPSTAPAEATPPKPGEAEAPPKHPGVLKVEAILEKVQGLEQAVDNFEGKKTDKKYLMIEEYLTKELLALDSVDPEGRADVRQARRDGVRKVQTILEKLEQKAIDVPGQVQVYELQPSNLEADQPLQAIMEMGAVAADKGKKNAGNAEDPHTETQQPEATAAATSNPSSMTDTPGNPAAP
BAG3_Glu455Lys-GFP (O95817, form named): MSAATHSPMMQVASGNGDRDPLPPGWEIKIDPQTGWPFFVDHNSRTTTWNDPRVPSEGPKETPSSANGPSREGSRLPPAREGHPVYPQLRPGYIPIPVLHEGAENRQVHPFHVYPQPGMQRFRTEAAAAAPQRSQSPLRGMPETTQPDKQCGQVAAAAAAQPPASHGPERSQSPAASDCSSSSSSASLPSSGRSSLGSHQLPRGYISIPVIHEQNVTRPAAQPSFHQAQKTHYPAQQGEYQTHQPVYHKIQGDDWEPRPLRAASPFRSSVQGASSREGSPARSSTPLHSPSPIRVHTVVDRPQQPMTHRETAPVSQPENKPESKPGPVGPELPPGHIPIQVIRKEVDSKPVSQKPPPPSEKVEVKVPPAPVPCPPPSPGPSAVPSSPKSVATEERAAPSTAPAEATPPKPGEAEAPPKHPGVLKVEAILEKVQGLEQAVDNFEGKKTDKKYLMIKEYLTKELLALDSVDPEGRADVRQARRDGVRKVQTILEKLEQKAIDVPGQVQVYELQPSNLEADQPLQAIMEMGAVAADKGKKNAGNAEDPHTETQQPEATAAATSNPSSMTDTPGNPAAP
BAG3_Pro209Gln-GFP (O95817, form named): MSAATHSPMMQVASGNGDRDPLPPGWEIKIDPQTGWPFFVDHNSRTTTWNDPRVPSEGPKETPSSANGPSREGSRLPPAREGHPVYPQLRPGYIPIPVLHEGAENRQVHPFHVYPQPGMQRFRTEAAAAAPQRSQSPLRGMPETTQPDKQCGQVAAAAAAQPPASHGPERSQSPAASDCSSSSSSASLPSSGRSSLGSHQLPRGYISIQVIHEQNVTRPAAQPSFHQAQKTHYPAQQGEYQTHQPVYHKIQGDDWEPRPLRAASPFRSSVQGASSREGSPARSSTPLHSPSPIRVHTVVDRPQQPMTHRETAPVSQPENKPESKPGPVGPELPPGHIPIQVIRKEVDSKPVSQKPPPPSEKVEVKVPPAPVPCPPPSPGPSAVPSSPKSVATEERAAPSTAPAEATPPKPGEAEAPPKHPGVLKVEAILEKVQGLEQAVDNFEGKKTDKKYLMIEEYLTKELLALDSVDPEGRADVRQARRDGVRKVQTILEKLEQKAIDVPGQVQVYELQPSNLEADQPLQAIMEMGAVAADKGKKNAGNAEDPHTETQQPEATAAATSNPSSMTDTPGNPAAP
BAG3_Pro209Leu-GFP (O95817, form named): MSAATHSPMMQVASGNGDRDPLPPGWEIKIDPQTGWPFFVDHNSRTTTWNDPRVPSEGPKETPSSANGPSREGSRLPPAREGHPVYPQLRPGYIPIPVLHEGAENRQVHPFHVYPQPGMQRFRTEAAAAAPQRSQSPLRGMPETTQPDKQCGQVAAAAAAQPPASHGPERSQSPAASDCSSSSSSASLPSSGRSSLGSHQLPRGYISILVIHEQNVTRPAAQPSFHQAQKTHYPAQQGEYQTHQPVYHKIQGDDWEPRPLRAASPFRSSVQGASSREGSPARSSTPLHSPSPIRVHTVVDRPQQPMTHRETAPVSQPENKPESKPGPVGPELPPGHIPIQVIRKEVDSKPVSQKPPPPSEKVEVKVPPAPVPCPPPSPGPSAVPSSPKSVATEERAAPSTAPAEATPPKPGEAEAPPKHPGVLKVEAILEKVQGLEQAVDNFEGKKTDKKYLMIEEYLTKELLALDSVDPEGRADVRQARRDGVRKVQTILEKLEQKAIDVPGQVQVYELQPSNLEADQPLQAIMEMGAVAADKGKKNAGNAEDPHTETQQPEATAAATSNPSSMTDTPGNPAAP
BAG3_Pro209Ser-GFP (O95817, form named): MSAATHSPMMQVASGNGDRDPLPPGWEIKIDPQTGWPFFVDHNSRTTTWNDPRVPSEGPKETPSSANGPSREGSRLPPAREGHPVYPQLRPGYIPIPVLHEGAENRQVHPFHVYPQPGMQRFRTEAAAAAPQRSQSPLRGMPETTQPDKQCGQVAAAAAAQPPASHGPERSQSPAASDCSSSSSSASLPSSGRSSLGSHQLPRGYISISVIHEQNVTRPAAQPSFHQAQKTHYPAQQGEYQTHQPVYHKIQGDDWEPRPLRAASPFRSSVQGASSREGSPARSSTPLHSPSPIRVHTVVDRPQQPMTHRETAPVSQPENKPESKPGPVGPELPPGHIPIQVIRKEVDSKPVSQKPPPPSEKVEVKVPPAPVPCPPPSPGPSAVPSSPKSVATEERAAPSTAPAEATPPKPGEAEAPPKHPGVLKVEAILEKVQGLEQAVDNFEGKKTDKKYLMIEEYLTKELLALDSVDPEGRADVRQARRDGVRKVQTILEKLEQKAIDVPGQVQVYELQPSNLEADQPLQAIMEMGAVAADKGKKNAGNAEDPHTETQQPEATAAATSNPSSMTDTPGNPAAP

T1: HSPB8 (endogenous, HeLa) (human (endogenous in HeLa)) (UniProt Q9UJY1)
T1 sequence: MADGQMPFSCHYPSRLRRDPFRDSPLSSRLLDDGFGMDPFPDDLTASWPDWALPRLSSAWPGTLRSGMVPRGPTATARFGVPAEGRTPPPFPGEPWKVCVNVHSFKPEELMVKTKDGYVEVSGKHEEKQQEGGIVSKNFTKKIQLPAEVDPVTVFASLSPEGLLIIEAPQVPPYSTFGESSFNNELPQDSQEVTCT


Key:
[1] = molecular target: T1, HSPB8 (endogenous, HeLa) (human (endogenous in HeLa)); test: co-IP; reverse experiment: HSPB8 precipitated with home-made rabbit HSPB8 antibody on Rabbit TrueBlot beads from lysates of HeLa cells transfected with BAG3-GFP constructs, 24 h after transfection; 1 h at 4 °C; 150 mM NaCl, 0.5% NP40, 1.5 mM MgCl2, 20 mM Tris-HCl pH 7.4, 3% glycerol, 1 mM DTT; rabbit serum as control
[2] = molecular target: BAG3_Glu455Lys-GFP (human) (UniProt O95817); test: co-IP; BAG3-GFP captured on GFP-Trap beads from the NP-40-soluble lysate of HEK293T cells stably expressing HSPB8-V5, 48 h after transfection; 1 h at 4 °C; 20 mM Tris-HCl pH 7.4, 2.5 mM MgCl2, 100 mM KCl, 0.5% Nonidet P-40; blots for GFP, V5, SQSTM1/p62 and Hsp70/Hsc70
[3] = molecular target: BAG3_Pro209Gln-GFP (human) (UniProt O95817); test: as above
[4] = molecular target: BAG3_Pro209Leu-GFP (human) (UniProt O95817); test: as above
[5] = molecular target: wild type BAG3-GFP (Bcl2-associated athanogene 3) (human) (UniProt O95817); test: as above
[6] = molecular target: BAG3_Pro209Ser-GFP (human) (UniProt O95817); test: as above

| binding [1] | Molecule | also measured |
| --- | --- | --- |
| binds | BAG3_Glu455Lys-GFP (from UniProt O95817 1-575) |  |
| binds | BAG3_Pro209Gln-GFP (from UniProt O95817 1-575) |  |
| binds | BAG3_Pro209Leu-GFP (from UniProt O95817 1-575) |  |
| binds | BAG3_Pro209Ser-GFP (from UniProt O95817 1-575) |  |
| binds | wild type BAG3-GFP (Bcl2-associated athanogene 3) (from UniProt O95817 1-575) |  |
|  | HSPB8-V5 (protein, UniProt Q9UJY1 1-196) MADGQMPFSCHYPSRLRRDPFRDSPLSSRLLDDGFGMDPFPDDLTASWPDWALPRLSSAWPGTLRSGMVPRGPTATARFGVPAEGRTPPPFPGEPWKVCVNVHSFKPEELMVKTKDGYVEVSGKHEEKQQEGGIVSKNFTKKIQLPAEVDPVTVFASLSPEGLLIIEAPQVPPYSTFGESSFNNELPQDSQEVTCT | binding [2]: binds; binding [3]: binds; binding [4]: binds; binding [5]: binds; binding [6]: binds |
